Laboratory results taken from PubChem BioAssay AID1671190 (National Center for Advancing Translational Sciences (NCATS), 2021).
Screen size: about 580,000 compounds; about 6,100 (1.1%) were called active. Inconclusive means that the source gave no clear call. Such entries were picked first, then a sample of the others. Calls follow the shape of the dose curve; as a rule, active = well fitted inhibition curve with a large enough effect; inconclusive = small, poorly fitted or top-dose-only effect, or another doubt; inactive = no such curve, though single readings can be large or run the other way. A potency beside an inconclusive call is a rough fit, not a confirmed value.

Sequences of proteins named here, by UniProt entry; tags and fusion partners are left off.
UniProt P18054, whole entry, looked up: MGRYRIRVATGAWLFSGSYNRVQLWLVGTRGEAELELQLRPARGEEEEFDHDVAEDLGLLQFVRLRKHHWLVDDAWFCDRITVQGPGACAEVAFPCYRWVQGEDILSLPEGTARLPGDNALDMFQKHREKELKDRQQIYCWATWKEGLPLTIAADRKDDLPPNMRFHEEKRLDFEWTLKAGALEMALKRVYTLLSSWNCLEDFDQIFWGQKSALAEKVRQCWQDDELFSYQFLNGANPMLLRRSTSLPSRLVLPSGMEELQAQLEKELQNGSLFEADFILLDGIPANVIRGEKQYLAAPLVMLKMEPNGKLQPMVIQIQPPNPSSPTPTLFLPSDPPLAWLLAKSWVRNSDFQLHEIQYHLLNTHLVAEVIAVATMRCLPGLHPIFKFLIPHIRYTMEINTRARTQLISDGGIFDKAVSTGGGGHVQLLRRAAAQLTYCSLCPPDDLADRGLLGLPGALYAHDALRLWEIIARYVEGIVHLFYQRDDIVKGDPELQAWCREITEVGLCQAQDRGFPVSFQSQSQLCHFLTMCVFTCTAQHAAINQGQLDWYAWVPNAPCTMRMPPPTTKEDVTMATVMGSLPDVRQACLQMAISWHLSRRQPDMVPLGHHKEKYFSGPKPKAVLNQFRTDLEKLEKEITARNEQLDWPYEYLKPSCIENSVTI

Molecular target: Polyunsaturated fatty acid lipoxygenase ALOX12 (Homo sapiens) (UniProt P18054)
Test: Primary qHTS assay for inhibitors of human arachidonate 12S-lipoxygenase (ALOX12): Round 2
Settings: purified 12hLO, xylenol orange hydroperoxide absorbance; activity change, negative = inhibition: at 108 µM (top of the series) unless noted
Procedure, shortened: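 Purified human 12hLO (150 nM final) in 25 mM Hepes, 0.01% Triton X-100, pH 7.0 was preincubated 15 min at room temperature with compound. Then 40 uM arachidonic acid was added, 30 min. Hydroperoxide was read by Fe-XO absorbance ratio 573/405 nm.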
% is scaled to controls: 0 for no effect and ±100 for the full control effect; potency is read from the fitted curve at half-maximal effect.

Row | SMILES | activity change, negative = inhibition | Potency
1 | O=C(CC1CC2CCC1C2)NCc1cccnc1 (centres undefined) | inactive: 12.7% | –
2 | COc1ccccc1-c1cc2nc(-c3ccccc3)cc(N3CCN(C(=O)c4ccoc4)CC3)n2n1 | – | inconclusive: 79.4 µM [inhibitor, partial curve, poor fit]
3 | Cc1cc(-c2onc3ccc(Cl)cc23)ccc1O | – | inconclusive: 50.1 µM [inhibitor, partial curve, poor fit]
4 | COc1ccccc1C(=O)Nc1ccc(O)c(-c2nc3ccccc3o2)c1 | – | inconclusive: 100 µM [inhibitor, partial curve, poor fit]
5 | Cc1[nH]c2ccccc2c1/C=C(\C#N)C(=O)NC(C)C | – | inconclusive: 50.1 µM [inhibitor, partial curve, poor fit]
6 | CCOC(=O)C1=C(CN2CCc3ccccc3C2)NC(=O)NC1c1ccc(CC)cc1 (centres undefined) | – | inconclusive: 44.7 µM [inhibitor, partial curve, poor fit]
7 | O=C(Nc1cccc(S(=O)(=O)NC2=NCCC2)c1)C1(c2cccc(Cl)c2)CC1 | inactive: 1.32% | –
8 | Brc1ccc(-c2nnc(-c3cccc(Br)c3)o2)cc1 | inactive: 0% | –
9 | Cc1nc(Nc2n[nH]c3c2CN(C(=O)N[C@H](CN(C)C)c2ccccc2)C3(C)C)c2sccc2n1 | – | inconclusive: 21.7 µM [inhibitor, partial curve, poor fit]
10 | Cc1ccccc1C(=O)Oc1ccc2c(=O)c(-c3ccccc3)coc2c1 | – | inconclusive: 126 µM [inhibitor, single point]
11 | COc1cc(C(=O)C(=O)N2CCN(c3ccc(C)cc3)CC2)cc2ccccc12 | – | inconclusive: 100 µM [inhibitor, single point]
12 | COc1ccc(NC(=O)C2CCOC2=O)cc1 (centres undefined) | – | inconclusive: 112 µM [inhibitor, partial curve, poor fit]
13 | Cc1sc2nc(CN3CCCC3)nc(N3CCN(S(=O)(=O)c4ccccc4)CC3)c2c1C | inactive: -1.62% | –
14 | Cc1cccc(Cn2c(N3CCc4ccccc4C3)nc3c2c(=O)[nH]c(=O)n3C)c1 | – | inconclusive: 158 µM [inhibitor, partial curve, poor fit]
15 | CSC(=NC1CCCCC1)NS(=O)(=O)c1ccccc1 | – | inconclusive: 224 µM [inhibitor, partial curve, poor fit]
16 | O=C1SCCC1NS(=O)(=O)c1ccc([N+](=O)[O-])cc1 (centres undefined) | – | inconclusive: 100 µM [inhibitor, partial curve, poor fit]
17 | NC(=S)N/N=C/c1ccc(C2C=CCC2)s1 (centres undefined) | inactive: -46.8% | –
18 | Cc1ccc(NC(=O)CCNC(=O)c2ccco2)cc1 | inactive: -6.19% | –
19 | CC1(C)CC(=O)C=C(Nc2ccc(Cl)c(Br)c2)C1 | – | inconclusive: 50.1 µM [inhibitor, partial curve, poor fit]
20 | CN(C)c1ccc(Nc2nc(N)c([N+](=O)[O-])c(N3CCOCC3)n2)cc1 | inactive: -23.5% | –
21 | CN(C)S(=O)(=O)c1ccccc1N=C=S | inactive: 2.65% | –
22 | O=C(NC(c1ccc(F)cc1)c1ccc2ccccc2n1)C1CCN(CCOc2ccc(Cl)cc2Cl)CC1 (centres undefined) | – | inconclusive: 63.1 µM [inhibitor, partial curve, poor fit]

Arranged by SMILES length (largest number first): some entries from above.
Row | SMILES | activity change, negative = inhibition | Potency
22 | O=C(NC(c1ccc(F)cc1)c1ccc2ccccc2n1)C1CCN(CCOc2ccc(Cl)cc2Cl)CC1 (centres undefined) | – | inconclusive: 63.1 µM [inhibitor, partial curve, poor fit]
20 | CN(C)c1ccc(Nc2nc(N)c([N+](=O)[O-])c(N3CCOCC3)n2)cc1 | inactive: -23.5% | –
4 | COc1ccccc1C(=O)Nc1ccc(O)c(-c2nc3ccccc3o2)c1 | – | inconclusive: 100 µM [inhibitor, partial curve, poor fit]

Next part:

Row | SMILES | activity change, negative = inhibition | Potency
23 | O=c1cc(CN2CCCCC2c2ccccn2)[nH]c2ccc(F)cc12 (centres undefined) | – | active: 7.94 µM
24 | COc1ccc(-n2c(CN3CCC(C(N)=O)CC3)nc3ccc([N+](=O)[O-])cc3c2=O)c(OC)c1 | inactive: 14.5% | –
25 | COc1ccc(NC(=O)c2cccc(NC(=O)c3ccc(Br)o3)c2)cc1 | – | inconclusive: 0.708 µM [inhibitor, full curve, poor fit]
26 | CCCCCCn1nc(C(=O)Nc2ccc(OC)c(OC(F)F)c2)c2ccccc2c1=O | inactive: 25.8% | –
27 | CCN1/C(=C/c2ccc3cc(C)ccc3[n+]2CC)Sc2cc(C)c(C)cc21 | – | active: 50.1 µM
28 | O=C(Nc1ccccc1C(=O)N1CCN(Cc2ccccc2)CC1)c1ccccn1 | inactive: 3.21% | –
29 | Cc1ccc(N/N=C(\C#N)C(=N)N2CCOCC2)cc1 | – | inconclusive: 5.62 µM [inhibitor, full curve, poor fit]
30 | CCOc1ccc(C(C)NC(=O)c2cccnc2OCC)cc1OCC (centres undefined) | inactive: -24% | –
31 | CC(C)NC(NC(=O)c1ccc(C(C)(C)C)cc1)C(Cl)(Cl)Cl (centres undefined) | – | inconclusive: 35.5 µM [inhibitor, partial curve, poor fit]
32 | CCCC(=O)Nc1cccc(C(=O)OC/C(=N\O)c2ccc(OC)cc2)c1 | inactive: 0.712% | –
33 | N#Cc1cccc(NC(=S)N[C@H]2CO[C@H]3[C@@H]2OC[C@@H]3n2nnnc2Oc2cccc(N3CCOCC3)c2)c1 | inactive: 28% | –
34 | O=C(NCCc1ccc(Cl)cc1)c1cccnc1 | – | inconclusive: 10 µM [inhibitor, full curve, poor fit]
35 | CCOC(=O)c1cnn(-c2ccc(OC)cc2)c1C1CCN(C(=O)OC(C)(C)C)CC1 | – | active: 14.1 µM
36 | Cc1cc(-c2nnn(CC(=O)NC(N)=O)n2)ccc1F | inactive: -0.11% | –
37 | CCOCC(=O)N1CCC(N2CC3CC(C2)[C@H]2CCCC(=O)N2C3)CC1 (some centres undefined) | – | inconclusive: 3.98 µM [inhibitor, full curve, poor fit]
38 | COc1ccc2nc(N3C(=O)C(O)=C(C(=O)c4ccco4)C3c3ccc(C)o3)sc2c1 (centres undefined) | – | inconclusive: 56.2 µM [inhibitor, partial curve, poor fit]
39 | CCOC(=O)Cn1c(C2CC(=O)N(Cc3ccccc3)C2)nc2ccccc21 (centres undefined) | inactive: 0.0706% | –
40 | CCC(C)(C)c1ccc(O)c(-c2csc(N)n2)c1 | – | inconclusive: 3.98 µM [inhibitor, single point]
41 | Cc1ccc2ccccc2c1CSc1nc(N)nc2c1ncn2CC(C)C | – | inconclusive: 79.4 µM [inhibitor, partial curve, poor fit]
42 | Cc1c(NC(=O)COC(=O)c2ccc[nH]c2=O)c(=O)n(-c2ccccc2)n1C | – | inconclusive: 56.2 µM [inhibitor, partial curve, poor fit]
43 | Cc1ccc(C(=O)N2CCCCCNC(=O)CC2c2ccccc2)s1 (centres undefined) | – | inconclusive: 89.1 µM [inhibitor, single point]
44 | CCn1cc(C(=O)NCCOc2ccccc2OC)c2ccccc21 | – | inconclusive: 44.7 µM [inhibitor, partial curve, poor fit]
